# US8575216B2, “Method of treatment for acute myelogenous leukemia” (priority 2009, dated 2013)
# Read-outs that look alike come from different tables or passages of the source. For at least one compound, name, drawing or mass did not settle the structure.
# How the values were obtained:
# [1] = system: NF-κB p65
# [2] = system: NF-κB p50; conditions: for Nuclear levels of p50, change compared with baseline: AML patients, range over patients
# [3] = system: MKP-1 ERK phosphatase; test: MKP-1 ERK phosphatase expression; type: cell-based
# [4] = at 48 hours (24 hours after the initiation of chemotherapy)
structure (smiles),measurement,setting,value
C[C@@H]1C[C@H]2[C@@H]3CCC4=CC(=O)C=C[C@]4(C)[C@@]3(F)[C@@H](O)C[C@]2(C)[C@@]1(O)C(=O)CO [dexamethasone],"Nuclear levels of p65, change compared with baseline","[1]; AML patients, 24 hours, range over patients",unchanged to a 110% increase
same,Patients with reductions of p65 below the baseline,[1]; [4],No patients
same,"Nuclear levels of p50, change compared with baseline",[2]; 24 hours,a decrease by 20% to an increase of 70%
same,"Nuclear levels of p50, change compared with baseline",[2]; 48 hours,no change to an increase of 80%
same,Patients with reductions of p50 below the baseline,[2]; [4],No patients
same,MKP-1 ERK phosphatase expression,[3],can induce
